PubChem BioAssay AID540363 (National Center for Advancing Translational Sciences (NCATS), 2011)
Inconclusive results, whose numbers are uncertain, are shown. Potencies beside an inconclusive call are fits to weak or partial responses and may not hold up.

Test: PC3M Cytotoxicity Assay for Compounds that Inhibit the Perinuclear Compartment: Chemistry Optimization Followup
Conditions: PC3M-GFP viability, ATPLite luminescence, 24 h; active means well fitted cell-killing curve with a large enough effect; inconclusive means small, poorly fitted or top-dose-only effect; inactive means flat fitted curve, though single readings scatter
Excerpt: The perinucleolar compartment (PNC) is a non-membrane-bound nuclear subdomain that is associated with but structurally distinct from the nucleolus. The PNC is a heritable trait, in which the number of PNCs per cell in daughter cells often mimics that of their mother cells. The PNC is heterogeneous in shape, is stable through interphase, disassembles during mitosis, and reassembles in early G1. The PNC is concentrated with newly synthesized RNA polymerase III (pol III) RNAs (MRP RNA, RNAse P H1 RNA, hY RNAs[hY1, 2, 5], Alu RNA, and SRP [7SL] RNA) and RNA binding proteins (nucleolin, PTB, CUG-BP, KSRP, Raver1, Raver2, and Rod). […] Extensive in vitro studies have shown that the PNC is unique to tumor cells and preferentially forms in tumor cells derived from solid tissues. Examination of cancer cell lines from various origins and malignant capacities has shown that PNC prevalence correlates with the malignancy of tumors and has the potential to be developed as a pan-cancer prognostic marker. […] Although the PNC is associated with a DNA locus and a handful of components have been identified, much remains to be investigated regarding the structure and function of the PNC and its mechanistic link to cancer. […]
1. […] Luminescencent signal was detected on a Viewlux CCD based imager (PerkinElmer) with a clear filter and a 30 second integration time. […]

## N=c1c2c(-c3ccccc3)c(-c3ccccc3)n(Cc3ccccc3)c2ncn1C1CCC(O)CC1 (stereo unspecified)
  Potency: inconclusive: 19.9 µM [cytotoxic, partial curve, poor fit]
